# In the supplement of paper PMC8728848:
# Some of the results follow.
# What was measured:
# Test in all cases: glycan array binding signal (z-score within array); higher = stronger binding
# Conditions in all cases: glycan notation: IUPAC condensed, linker removed
# Fuc(a1-2)Gal = biological target: Fuc(a1-2)Gal
# Procedure, shortened: (§1)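 The binding signal is a Z-score computed within each array. Data were drawn from 3228 arrays in the Consortium for Functional Glycomics database, restricted to those with a known protein sequence. Scores were averaged over arrays of the same protein sequence at different concentrations or buffers, and over linkers, and negative values can be taken as non-binding.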
# Fuc(a1-2)Gal(b1-3)GalNAc = biological target: Fuc(a1-2)Gal(b1-3)GalNAc
# Procedure, shortened: as §1
# [1] = biological target: Fuc(a1-2)Gal(b1-3)GalNAc(a1-3)[Fuc(a1-2)]Gal(b1-4)Glc
# Procedure, shortened: as §1
# [2] = biological target: Fuc(a1-2)Gal(b1-3)GalNAc(a1-3)[Fuc(a1-2)]Gal(b1-4)GlcNAc
# Procedure, shortened: as §1
# [3] = biological target: Fuc(a1-2)Gal(b1-3)GalNAc(b1-3)Gal
# Procedure, shortened: as §1
# [4] = biological target: Fuc(a1-2)Gal(b1-3)GalNAc(b1-3)Gal(a1-4)Gal(b1-4)Glc
# Procedure, shortened: as §1
# [5] = biological target: Fuc(a1-2)Gal(b1-3)GalNAc(b1-4)[Neu5Ac(a2-3)]Gal(b1-4)Glc
# Procedure, shortened: as §1
# Fuc(a1-2)Gal(b1-3)GlcNAc = biological target: Fuc(a1-2)Gal(b1-3)GlcNAc
# Procedure, shortened: as §1
# [6] = biological target: Fuc(a1-2)Gal(b1-3)GlcNAc(b1-2)Man(a1-3)[Fuc(a1-2)Gal(b1-3)GlcNAc(b1-2)Man(a1-6)]Man(b1-4)GlcNAc(b1-4)GlcNAc
# Procedure, shortened: as §1
# [7] = biological target: Fuc(a1-2)Gal(b1-3)GlcNAc(b1-2)Man(a1-3)[Fuc(a1-2)Gal(b1-3)GlcNAc(b1-2)Man(a1-6)]Man(b1-4)GlcNAc(b1-4)[Fuc(a1-6)]GlcNAc
# Procedure, shortened: as §1
# [8] = biological target: Fuc(a1-2)Gal(b1-3)GlcNAc(b1-3)Gal(b1-4)Glc
# Procedure, shortened: as §1
# [9] = biological target: Fuc(a1-2)Gal(b1-3)GlcNAc(b1-3)GalNAc
# Procedure, shortened: as §1
# [10] = biological target: Fuc(a1-2)Gal(b1-3)GlcNAc(b1-3)[Fuc(a1-2)Gal(b1-3)GlcNAc(b1-6)]GalNAc
# Procedure, shortened: as §1
# [11] = biological target: Fuc(a1-2)Gal(b1-3)GlcNAc(b1-3)[Gal(b1-4)GlcNAc(b1-6)]Gal(b1-4)Glc
# Procedure, shortened: as §1
# [12] = biological target: Fuc(a1-2)Gal(b1-3)GlcNAc(b1-3)[Neu5Ac(a2-6)Gal(b1-4)GlcNAc(b1-6)]Gal(b1-4)Glc
# Procedure, shortened: as §1
# [13] = biological target: Fuc(a1-2)Gal(b1-3)GlcNAc6S
# Procedure, shortened: as §1
# [14] = biological target: Fuc(a1-2)Gal(b1-3)[Fuc(a1-4)]GlcNAc
# Procedure, shortened: as §1
# [15] = biological target: Fuc(a1-2)Gal(b1-3)[Fuc(a1-4)]GlcNAc(b1-2)Man(a1-3)[Fuc(a1-2)Gal(b1-3)[Fuc(a1-4)]GlcNAc(b1-2)Man(a1-3)]Man(b1-4)GlcNAc(b1-4)GlcNAc
# Procedure, shortened: as §1
# [16] = biological target: Fuc(a1-2)Gal(b1-3)[Fuc(a1-4)]GlcNAc(b1-2)Man(a1-3)[Fuc(a1-2)Gal(b1-3)[Fuc(a1-4)]GlcNAc(b1-2)Man(a1-6)]Man(b1-4)GlcNAc(b1-4)[Fuc(a1-6)]GlcNAc(b1-4)[Fuc(a1-6)]GlcNAc
# Procedure, shortened: as §1
# [17] = biological target: Fuc(a1-2)Gal(b1-3)[Fuc(a1-4)]GlcNAc(b1-3)[Fuc(a1-3)[Gal(b1-4)]GlcNAc(b1-6)]Gal(b1-4)Glc
# Procedure, shortened: as §1
# [18] = biological target: Fuc(a1-2)Gal(b1-3)[Fuc(a1-4)]GlcNAc(b1-3)[Gal(b1-4)GlcNAc(b1-6)]Gal(b1-4)Glc
# Procedure, shortened: as §1
# [19] = biological target: Fuc(a1-2)Gal(b1-4)Fuc(a1-3)]GlcNAc(b1-2)Man(a1-3)[Fuc(a1-2)Gal(b1-4)[Fuc(a1-3)]GlcNAc(b1-2)Man(a1-6)]Man(b1-4)GlcNAc(b1-4)GlcNAc
# Procedure, shortened: as §1
# Fuc(a1-2)Gal(b1-4)Glc = biological target: Fuc(a1-2)Gal(b1-4)Glc
# Procedure, shortened: as §1
# Fuc(a1-2)Gal(b1-4)Glc6S = biological target: Fuc(a1-2)Gal(b1-4)Glc6S
# Procedure, shortened: as §1
# Fuc(a1-2)Gal(b1-4)GlcNAc = biological target: Fuc(a1-2)Gal(b1-4)GlcNAc
# Procedure, shortened: as §1
# [20] = biological target: Fuc(a1-2)Gal(b1-4)GlcNAc(b1-2)Man
# Procedure, shortened: as §1
# [21] = biological target: Fuc(a1-2)Gal(b1-4)GlcNAc(b1-2)Man(a1-3)[Fuc(a1-2)Gal(b1-4)GlcNAc(b1-2)Man(a1-6)]Man(b1-4)GlcNAc(b1-4)GlcNAc
# Procedure, shortened: as §1
# [22] = biological target: Fuc(a1-2)Gal(b1-4)GlcNAc(b1-2)Man(a1-3)[Fuc(a1-2)Gal(b1-4)GlcNAc(b1-2)Man(a1-6)]Man(b1-4)GlcNAc(b1-4)[Fuc(a1-6)]GlcNAc
# Procedure, shortened: as §1
# [23] = biological target: Fuc(a1-2)Gal(b1-4)GlcNAc(b1-2)[Fuc(a1-2)Gal(b1-4)GlcNAc(b1-4)]Man(a1-3)[Fuc(a1-2)Gal(b1-4)GlcNAc(b1-2)Man(a1-6)]Man(b1-4)GlcNAc(b1-4)GlcNAc
# Procedure, shortened: as §1
# [24] = biological target: Fuc(a1-2)Gal(b1-4)GlcNAc(b1-3)Gal(b1-4)GlcNAc
# Procedure, shortened: as §1
binder,measurement,setting,value
"RsaA-N-term (Caulobacter crescentus), P35828 (protein) MAYTTAQLVTAYTNANLGKAPDAATTLTLDAYATQTQTGGLSDAAALTNTLKLVNSTTAVAIQTYQFFTGVAPSAAGLDFLVDSTTNTNDLNDAYYSKFAQENRFINFSINLATGAGAGATAFAAAYTGVSYAQTVATAYDKIIGNAVATAAGVDVAAAVAFLSRQANIDYLTAFVRANTPFTAAADIDLAVKAALIGTILNAATVSGIGGYATATAAMINDLSDGALSTDNAAGVNLFTAYPSSGVSGSTLSLTTGTDTLTGTANNDTFVAGEVAGDGSGWSHPQFEKGG",glycan array binding signal (z-score),Fuc(a1-2)Gal,0.312
same,glycan array binding signal (z-score),Fuc(a1-2)Gal(b1-3)GalNAc,-0.026
same,glycan array binding signal (z-score),[1],0.281
same,glycan array binding signal (z-score),[2],0.508
same,glycan array binding signal (z-score),[3],-0.298
same,glycan array binding signal (z-score),[4],-0.414
same,glycan array binding signal (z-score),[5],0.175
same,glycan array binding signal (z-score),Fuc(a1-2)Gal(b1-3)GlcNAc,0.278
same,glycan array binding signal (z-score),[6],-0.148
same,glycan array binding signal (z-score),[7],-0.76
same,glycan array binding signal (z-score),[8],1.29
same,glycan array binding signal (z-score),[9],0.429
same,glycan array binding signal (z-score),[10],-0.36
same,glycan array binding signal (z-score),[11],0.22
same,glycan array binding signal (z-score),[12],-0.539
same,glycan array binding signal (z-score),[13],-0.712
same,glycan array binding signal (z-score),[14],-0.197
same,glycan array binding signal (z-score),[15],0.077
same,glycan array binding signal (z-score),[16],1.01
same,glycan array binding signal (z-score),[17],-1.93
same,glycan array binding signal (z-score),[18],-0.876
same,glycan array binding signal (z-score),[19],5.97
same,glycan array binding signal (z-score),Fuc(a1-2)Gal(b1-4)Glc,-1.21
same,glycan array binding signal (z-score),Fuc(a1-2)Gal(b1-4)Glc6S,-0.343
same,glycan array binding signal (z-score),Fuc(a1-2)Gal(b1-4)GlcNAc,0.402
same,glycan array binding signal (z-score),[20],-0.672
same,glycan array binding signal (z-score),[21],0.243
same,glycan array binding signal (z-score),[22],7.05
same,glycan array binding signal (z-score),[23],-1.7
same,glycan array binding signal (z-score),[24],-0.634

# Exported tab-delimited: entries from further up
binder	measurement	setting	value
RsaA-N-term (Caulobacter crescentus), P35828 (protein) MAYTTAQLVTAYTNANLGKAPDAATTLTLDAYATQTQTGGLSDAAALTNTLKLVNSTTAVAIQTYQFFTGVAPSAAGLDFLVDSTTNTNDLNDAYYSKFAQENRFINFSINLATGAGAGATAFAAAYTGVSYAQTVATAYDKIIGNAVATAAGVDVAAAVAFLSRQANIDYLTAFVRANTPFTAAADIDLAVKAALIGTILNAATVSGIGGYATATAAMINDLSDGALSTDNAAGVNLFTAYPSSGVSGSTLSLTTGTDTLTGTANNDTFVAGEVAGDGSGWSHPQFEKGG	glycan array binding signal (z-score)	[3]	-0.298
same	glycan array binding signal (z-score)	[11]	0.22
